First the molecules themselves.
B1: Ifitm1 (protein, UniProt Q9D103 1-106)
chain: MPKEQQEVVVLGSPHISTSATATTINMPEISTPDHVVWSLFNTLFMNFCCLGFVAYAYSVKSRDRKMVGDTTGAQAFASTAKCLNISSLFFTILTAIVVIVVCAIR
B2: Rtn3 (protein, UniProt Q9ES97 1-964)
chain: MAESSAATQSPSVSSSSSGAEPSALGGGGGSPGACPALGAKSCGSSCADSFVSSSSSQPVSIFSTSQAGLSSLCSDEPPSKSMTSSFLSSSEIHNPDPTTPLGEKSETLGSQFVLAKGKDPLVLLDKKKLDSPQGTNKDRVDAPVSLATGIPCSHPSIPDSFPEQPAFLSKEIGPAEEWVVKDQEPKNPNKVPDGEDRSALDFGQSKAEHICTYSLSPSELPVASVEKDSPESPFEVIIDKATFDREFKDLYKENPNDLGGWAAHGDRESPADLLEMNDKLFPLRNKEAGRYPSSVLLGRQFSHTTAALEEVSRCVNDMHNFTNEILTWDLDPQAKQQANKTSCTTESTGLDRSELRSEIPVINLKTNPQQKMPVCSFNGSTPITKSTGDWTEAFTEGKPVRDYLSSTKEAGGNGVPGSSQLHSELPGSMPEKWVSGSGAATVEVTLPNLRGAWPNSVMGEVTEVDSSGESDDTVIEDITEKPDSLPSAAAKTSEREIKETPSRETVRSEMCENSEQPQAQPETPTQKSLEGEVASQVPNTLNEVTPEKLDMTNNPKVCSAAPPSVLNETGFSLTVPASAKLESLLGKYVEDTDGSSPEDLMAVLTGAEEKGIVDKEEGDVLEAVLEKIADFKNTLPVELLHESELSGSETKNIKSKYSEDSRETTGGAPTMSPDLEQEQLTIRAIKELGERQAEKVQDEGISSGGKLKQTFAPQSGPQSSSDILEHTDVKTGSDLGIPKNPTIIKNTRIDSISSLTKTEMVNKNVLARLLSDFPVHDLIFWRDVKKTGFVFGTTLIMLLSLAAFSVISVVSYLILALLSVTISFRVYKSVIQAVQKSEEGHPFKAYLDVDITLSSEAFHNYMNAAMVHVNKALKLIIRLFLVEDLVDSLKLAVFMWLMTYVGAVFNGITLLILAELLVFSVPIVYEKYKTQIDHYVGIARDQTKSIVEKIQAKLPGIAKKKAE
B3: Nogo-B (reticulon 4 isoform), mouse (protein, UniProt Q99P72-5 1-356)
chain: MEDIDQSSLVSSSADSPPRPPPAFKYQFVTEPEDEEDEEDEEEEEDDEDLEELEVLERKPAAGLSAAPVPPAAAPLLDFSSDSVPPAPRGPLPAAPPTAPERQPSWERSPAASAPSLPPAAAVLPSKLPEDDEPPARPPAPAGASPLAEPAAPPSTPAAPKRRGSGSVVVDLLYWRDIKKTGVVFGASLFLLLSLTVFSIVSVTAYIALALLSVTISFRIYKGVIQAIQKSDEGHPFRAYLESEVAISEELVQKYSNSALGHVNSTIKELRRLFLVDDLVDSLKFAVLMWVFTYVGALFNGLTLLILALISLFSIPVIYERHQAQIDHYLGLANKSVKDAMAKIQAKIPGLKRKAE
B4: PRA1 family protein 3 (Arl6ip5, Praf3) (protein, UniProt Q8R5J9 1-188)
chain: MDVNLAPLRAWDDFFPGSDRFARPDFRDISKWNNRVVSNLLYYQTNYLVVAAMMISVVGFLSPFNMILGGVIVVLVFMGFVWAAHNKDILRRMKKQYPTAFVMVVMLASYFLISMFGGVMVFVFGITLPLLLMFIHASLRLRNLKNKLENKMEGIGLKKTPMGIILDALEQQEDNINKFADYISKARE
B5: Ifitm2 (protein, UniProt Q99J93 1-144)
chain: MSHNSQAFLSTNAGLPPSYETIKEEYGVTELGEPSNSAVVRTTVINMPREVSVPDHVVWSLFNTLFFNACCLGFVAYAYSVKSRDRKMVGDVVGAQAYASTAKCLNISSLIFSILMVIICIIIFSTTSVVVFQSFAQRTPHSGF

Amino acid sequences for entries named in this document (tags omitted).
UniProt Q9CQW9: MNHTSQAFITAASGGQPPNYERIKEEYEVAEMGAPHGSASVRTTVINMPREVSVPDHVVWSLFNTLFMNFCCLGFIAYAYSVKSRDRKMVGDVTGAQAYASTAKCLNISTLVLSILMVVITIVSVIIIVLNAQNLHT

No constants are given. Whether binding was seen depends on the method and setting. Binding seen in cells or lysates may run through a third protein. These calls come from enrichment with a bait or labelling near it, and not all partners need be listed.

The test addresses Interferon-induced transmembrane protein 3 (Ifitm3), mouse (mouse (endogenous in BM-DCs)) (UniProt Q9CQW9). Nature of the test: affinity purification with mass spectrometry; SILAC-IP: anti-fragilis (Ifitm3) antibody on protein A/G agarose beads, lysates of wt ('Medium') against Ifitm3-/- ('Heavy') BM-DCs, mock infected or infected with MCMV (MOI 1) for 3 h; Pierce IP lysis buffer.
In the case of B1, the binding result is on record as “binds”.
The result for B2 reads “binds”.
With B3, the binding entry is reported as “binds”.
The result for B4 reads “binds”; that for B5, “binds”.

(Values after paper PMC9454482.)
